US7312323B2, “Enzymes and polynucleotides encoding the same” (The Horticulture and Food Research Institute of New Zealand …, priority 2002, dated 2007)

System: multifunctional germacrene D synthase (EST75565)
Test: Sesquiterpene products of purified recombinant protein + FDP, headspace trapping GC-MS
Format: biochemical, Actinidia deliciosa
Details: for Ratios of products, % at pH 6.5 / Ratios of products, % at pH 7.5 / Ratios of products, % at pH 8.5: 21 hours; for share of sesquiterpene products: purified protein + FDP
[1] = Carbowax/DVB SPME fibres, optimum activity conditions
[2] = dynamic headspace, Chromosorb 105, 18 hours
[3] = 30 minutes trapping at 0 hours after addition of FDP
[4] = 30 minutes trapping at 1 hour after addition of FDP
[5] = 30 minutes trapping at 2 hours after addition of FDP

SMILES | Ratios of products, % at pH 6.5 (Carbowax/DVB SPME fibres) | Ratios of products, % at pH 7.5 (Carbowax/DVB SPME fibres) | Ratios of products, % at pH 8.5 (Carbowax/DVB SPME fibres) | share of sesquiterpene products [1] | share of sesquiterpene products [2] | Relative quantities (%) of sesquiterpenes trapped onto PDMS/PDV fibres [3] | Relative quantities (%) of sesquiterpenes trapped onto PDMS/PDV fibres [4] | Relative quantities (%) of sesquiterpenes trapped onto PDMS/PDV fibres [5] | share of sesquiterpene products (PDMS/DVB SPME fibres, 24 hours)
C=C[C@]1(C)CC[C@@H](C(C)(C)O)C[C@H]1C(=C)C [Elemol] | 5.9% | 5.2% | 4.9% | 4.2% | 16.6% |  |  |  | 
CC(C)=C1C/C=C(\C)CC/C=C(\C)CC1 [Germacrene B] | 2.7% | 2.3% | 4.8% | 4.3% | 1.4% | 14.6% | 4.5% | 3.8% | 
C=C1C=CC(C(C)C)CCC(C)=CCC1 (centres unmarked) [Germacrene D, 7-iso-propyl-10-methyl-4-methylene-cyclodeca-5,10-diene] | 64.6% | 64.8% | 64.9% | 83% | 54% | 9.4% | 5.0% | 4.4% | 4.6%
CC1=C[C@@H]2[C@@H](CC1)C(C)=CC[C@H]2C(C)C [alpha-cadinene] |  |  |  |  |  | 0% | 3.4% | 3.9% | 
CC1=C[C@@H]2[C@H](CC1)C(C)=CC[C@H]2C(C)C [alpha-muurolene] |  |  |  |  |  | 0% | 6.9% | 8.3% | 5.9%
C=C(C)[C@@H]1CC[C@@]2(C)CCC=C(C)[C@@H]2C1 [alpha-selinene] |  |  |  |  |  | 0% | 6.0% | 4.5% | 
C=C[C@]1(C)CC[C@@H](C(=C)C)C[C@H]1C(=C)C [beta-elemene] | 10.6% | 6.3% | 1.7% |  |  |  |  |  | 
CC1=C[C@@H]2C(=C(C)CC[C@H]2C(C)C)CC1 [delta-cadinene] |  | 1.2% |  | 0.5% | 3.9% | 12.6% | 15.8% | 16.6% | 14.2%
C=C1CC[C@H](C(C)C)[C@H]2C=C(C)CC[C@H]12 [gamma-cadinene] |  |  |  |  | 1.8% | 14.5% | 13.2% | 12.3% | 7.3%
C=CC1(C)CCC(=C(C)C)CC1C(=C)C (centres unmarked) [gamma-elemene] | 5.9% | 6.8% | 9.0% | 1.3% | 2.9% | 0% | 5.6% | 5.9% | 4.9%
C=C1CC[C@@H](C(C)C)[C@@H]2C=C(C)CC[C@H]12 [gamma-muurolene] |  |  |  | 0.3% | 3.8% | 15% | 20.2% | 20.0% | 14.8%
CC1=CCC[C@]2(C)CCC(=C(C)C)C[C@@H]12 [selinadiene, eudesma-3,7(11)-diene] |  |  |  |  |  | 15.4% | 7.7% | 7.6% | 7.3%
C=C[C@@]1(C)CCC(C(C)C)=C[C@@H]1C(=C)C [δ-Elemene] | 10.4% | 13.4% | 14.6% | 7% | 15.5% | 0% | 2.7% | 4.0% | 
